{
  "source": "the supplement of paper PMC6411743",
  "molecular_target": "T1, C9JI46 and related entries (UniProt Q8N3X6)",
  "T1 sequence (whole entry)": "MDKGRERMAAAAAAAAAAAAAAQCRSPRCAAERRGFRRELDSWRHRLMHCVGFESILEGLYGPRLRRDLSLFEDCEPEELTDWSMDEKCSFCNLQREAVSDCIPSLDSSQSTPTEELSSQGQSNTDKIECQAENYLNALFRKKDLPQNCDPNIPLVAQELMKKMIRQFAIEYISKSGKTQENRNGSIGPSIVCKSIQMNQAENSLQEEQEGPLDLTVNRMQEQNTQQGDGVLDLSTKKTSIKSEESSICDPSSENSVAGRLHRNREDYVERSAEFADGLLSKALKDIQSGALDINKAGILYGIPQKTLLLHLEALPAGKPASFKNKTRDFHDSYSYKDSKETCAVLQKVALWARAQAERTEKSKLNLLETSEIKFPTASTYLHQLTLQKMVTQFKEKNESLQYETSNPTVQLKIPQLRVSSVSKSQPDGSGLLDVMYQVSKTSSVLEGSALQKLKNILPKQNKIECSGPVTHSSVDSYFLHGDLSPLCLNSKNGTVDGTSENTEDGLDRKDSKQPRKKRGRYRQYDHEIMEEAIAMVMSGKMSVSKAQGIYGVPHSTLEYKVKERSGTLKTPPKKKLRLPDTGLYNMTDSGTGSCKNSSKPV",
  "experiment": "NP40-soluble protein abundance relative to vehicle (solubility fold change) (ratio); higher = more soluble protein in presence of GTP",
  "description": "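Solubility proteome profiling in Jurkat crude lysate. Lysate was treated with Mg-GTP (0.1-10 mM) for 10 min at room temperature and 3 min at 37 °C, then solubilised with 0.8% NP40 and benzonase, followed by ultracentrifugation. Proteins were quantified by TMT10 LC-MS/MS; the value is the NP40-soluble abundance relative to the NP40-processed vehicle, from 3 independent experiments.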",
  "note": "± gives the standard deviation of the averaged measurements. The list shows a part of the results.",
  "data": [
    {"smiles": "Nc1nc2c(ncn2[C@@H]2O[C@H](COP(=O)(O)OP(=O)(O)OP(=O)(O)O)[C@@H](O)[C@H]2O)c(=O)[nH]1", "note": "[guanosine triphosphate]", "values": [
      {"measurement": "NP40-soluble protein abundance", "setting": "concentration: 0.1mM", "result": "0.974 ± 0.18"},
      {"measurement": "NP40-soluble protein abundance", "setting": "concentration: 0.5mM", "result": "1.04 ± 0.17"},
      {"measurement": "NP40-soluble protein abundance", "setting": "concentration: 1mM", "result": "1.04 ± 0.038"},
      {"measurement": "NP40-soluble protein abundance", "setting": "concentration: 2mM", "result": "1.09 ± 0.18"},
      {"measurement": "NP40-soluble protein abundance", "setting": "concentration: 4mM", "result": "0.988 ± 0.13"},
      {"measurement": "NP40-soluble protein abundance", "setting": "concentration: 6mM", "result": "0.989 ± 0.19"},
      {"measurement": "NP40-soluble protein abundance", "setting": "concentration: 8mM", "result": "1.07 ± 0.13"},
      {"measurement": "NP40-soluble protein abundance", "setting": "concentration: 10mM", "result": "1.04 ± 0.2"}
    ]}
  ]
}
